These are yes or no findings as the source states them, for the method shown. In cells and extracts the contact can be indirect. Some results given as binding are weak or reduced against the parent protein; the word gives no strength.
Target: T1, Bcl-2 (B-cell lymphoma-2) (mouse (endogenous in RAW264.7)), P10417
T1 chain: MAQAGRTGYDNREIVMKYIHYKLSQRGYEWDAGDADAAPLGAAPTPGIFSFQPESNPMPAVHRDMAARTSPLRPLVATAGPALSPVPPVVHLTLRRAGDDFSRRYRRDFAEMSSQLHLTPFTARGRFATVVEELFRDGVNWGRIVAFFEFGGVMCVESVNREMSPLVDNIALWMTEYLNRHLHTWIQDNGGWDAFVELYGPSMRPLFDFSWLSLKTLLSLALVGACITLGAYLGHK
Experiment: co-IP; RIPA lysate (1 mM PMSF, phosphatase inhibitors) of RAW264.7 macrophages infected with S. aureus (USA300, moeA deletion mutant); anti-Bcl-2 and protein A/G beads overnight at 4°C; co-immunoprecipitated Beclin1 detected by western blot
Conditions: remark: other sources report otherwise

binding: binds
B1: Beclin1, O88597 1-448 (protein)
chain: MEGSKASSSTMQVSFVCQRCSQPLKLDTSFKILDRVTIQELTAPLLTTAQAKPGETQEEEANSGEEPFIETRQDGVSRRFIPPARMMSTESANSFTLIGEASDGGTMENLSRRLKVTGDLFDIMSGQTDVDHPLCEECTDTLLDQLDTQLNVTENECQNYKRCLEILEQMNEDDSEQLQRELKELALEEERLIQELEDVEKNRKVVAENLEKVQAEAERLDQEEAQYQREYSEFKRQQLELDDELKSVENQVRYAQIQLDKLKKTNVFNATFHIWHSGQFGTINNFRLGRLPSVPVEWNEINAAWGQTVLLLHALANKMGLKFQRYRLVPYGNHSYLESLTDKSKELPLYCSGGLRFFWDNKFDHAMVAFLDCVQQFKEEVEKGETRFCLPYRMDVEKGKIEDTGGSGGSYSIKTQFNSEEQWTKALKFMLTNLKWGLAWVSSQFYNK

From paper PMC11980563
